The text below walks through data of article doi:10.1101/2020.08.28.269175.

Sequences of proteins named here, by UniProt entry; tags and fusion partners are left off. A change or cut given only in a name is not applied to a line headed by its entry. Residues count along the entry.
UniProt P0DTD8, whole entry, stated change not applied: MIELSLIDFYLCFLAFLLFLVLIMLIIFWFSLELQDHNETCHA
UniProt P0DTC7, 16-121, stated change not applied: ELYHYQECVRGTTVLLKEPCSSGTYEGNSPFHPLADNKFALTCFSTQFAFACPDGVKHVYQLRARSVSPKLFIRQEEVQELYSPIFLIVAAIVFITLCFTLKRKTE

Test in all cases: proximity labelling
The target in assay [1] is SARS-CoV-2 ORF7B (SARS-CoV-2) (UniProt P0DTD8).
For assay [2], the target named is SARS-CoV-2 NSP3 (SARS-CoV-2) (UniProt P0DTD1).
The target in assay [3] is SARS-CoV-2 ORF7A (SARS-CoV-2) (UniProt P0DTC7).

These are yes or no findings as the source states them, for the method shown. In cells and extracts the contact can be indirect. Here binding means that the protein was enriched with, or labelled near, the bait; the list need not be complete.

In the case of SLC26A11 (from UniProt Q86WA9 1-606), the binding result in assay [1] is on record as “binds”.

As for FXR2 (from UniProt P51116 1-673), in assay [2], the binding entry is reported as “binds”. As for SLC6A9 (from UniProt P48067 1-706), the binding entry in assay [3] is “binds”.

SLC4A2 (from UniProt P04920 1-1241): the binding result in assay [3] was “binds”. Regarding SLC6A6 (from UniProt P31641 1-620), the binding result in assay [3] is “binds”. For the substance SLC1A5 (from UniProt Q15758 1-541), in assay [1], the binding entry is reported as “binds”. Regarding SLC39A14 (from UniProt Q15043 31-492), in assay [1], the binding result is on record as “binds”.
